In PMC6518688 one finds binding data, which are given here for two substances.

By UniProt entry, the sequences of proteins in these tests, tags left out.
UniProt P13569: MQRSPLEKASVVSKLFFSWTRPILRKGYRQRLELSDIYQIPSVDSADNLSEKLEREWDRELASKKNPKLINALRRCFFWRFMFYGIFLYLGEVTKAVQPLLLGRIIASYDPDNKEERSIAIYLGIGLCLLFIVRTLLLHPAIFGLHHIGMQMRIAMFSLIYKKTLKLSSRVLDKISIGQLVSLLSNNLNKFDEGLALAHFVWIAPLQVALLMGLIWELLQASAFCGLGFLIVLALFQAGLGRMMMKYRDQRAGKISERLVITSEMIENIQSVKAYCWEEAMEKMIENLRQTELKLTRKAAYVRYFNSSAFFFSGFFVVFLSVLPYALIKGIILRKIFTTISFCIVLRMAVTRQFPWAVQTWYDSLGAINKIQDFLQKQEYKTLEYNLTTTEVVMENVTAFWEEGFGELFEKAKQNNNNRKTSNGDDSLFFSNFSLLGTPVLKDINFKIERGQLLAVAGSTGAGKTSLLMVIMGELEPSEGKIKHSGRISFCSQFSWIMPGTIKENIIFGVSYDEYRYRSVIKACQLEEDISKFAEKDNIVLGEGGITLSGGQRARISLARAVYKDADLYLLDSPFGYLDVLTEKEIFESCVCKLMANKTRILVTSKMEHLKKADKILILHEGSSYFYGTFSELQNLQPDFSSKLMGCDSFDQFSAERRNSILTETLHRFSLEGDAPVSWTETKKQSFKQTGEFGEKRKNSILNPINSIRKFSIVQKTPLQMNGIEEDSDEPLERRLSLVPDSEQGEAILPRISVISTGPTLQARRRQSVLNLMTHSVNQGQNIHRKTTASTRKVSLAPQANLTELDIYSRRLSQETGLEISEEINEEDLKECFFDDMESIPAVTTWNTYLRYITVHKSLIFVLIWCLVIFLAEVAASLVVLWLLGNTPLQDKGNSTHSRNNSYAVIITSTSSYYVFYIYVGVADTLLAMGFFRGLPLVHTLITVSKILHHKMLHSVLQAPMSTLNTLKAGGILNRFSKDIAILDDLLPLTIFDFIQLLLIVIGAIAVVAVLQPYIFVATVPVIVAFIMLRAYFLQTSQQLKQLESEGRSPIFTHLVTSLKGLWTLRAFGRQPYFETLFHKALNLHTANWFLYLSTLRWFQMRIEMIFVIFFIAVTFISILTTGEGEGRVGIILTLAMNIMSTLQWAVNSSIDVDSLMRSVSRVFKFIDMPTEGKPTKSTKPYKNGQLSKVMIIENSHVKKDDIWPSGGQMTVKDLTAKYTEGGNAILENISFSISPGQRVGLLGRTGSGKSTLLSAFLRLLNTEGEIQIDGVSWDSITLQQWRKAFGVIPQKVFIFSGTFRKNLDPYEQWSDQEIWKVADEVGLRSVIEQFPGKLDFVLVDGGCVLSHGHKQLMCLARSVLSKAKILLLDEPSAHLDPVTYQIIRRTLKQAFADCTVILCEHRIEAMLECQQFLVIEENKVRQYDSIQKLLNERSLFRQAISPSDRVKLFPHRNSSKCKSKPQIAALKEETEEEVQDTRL
UniProt Q07157: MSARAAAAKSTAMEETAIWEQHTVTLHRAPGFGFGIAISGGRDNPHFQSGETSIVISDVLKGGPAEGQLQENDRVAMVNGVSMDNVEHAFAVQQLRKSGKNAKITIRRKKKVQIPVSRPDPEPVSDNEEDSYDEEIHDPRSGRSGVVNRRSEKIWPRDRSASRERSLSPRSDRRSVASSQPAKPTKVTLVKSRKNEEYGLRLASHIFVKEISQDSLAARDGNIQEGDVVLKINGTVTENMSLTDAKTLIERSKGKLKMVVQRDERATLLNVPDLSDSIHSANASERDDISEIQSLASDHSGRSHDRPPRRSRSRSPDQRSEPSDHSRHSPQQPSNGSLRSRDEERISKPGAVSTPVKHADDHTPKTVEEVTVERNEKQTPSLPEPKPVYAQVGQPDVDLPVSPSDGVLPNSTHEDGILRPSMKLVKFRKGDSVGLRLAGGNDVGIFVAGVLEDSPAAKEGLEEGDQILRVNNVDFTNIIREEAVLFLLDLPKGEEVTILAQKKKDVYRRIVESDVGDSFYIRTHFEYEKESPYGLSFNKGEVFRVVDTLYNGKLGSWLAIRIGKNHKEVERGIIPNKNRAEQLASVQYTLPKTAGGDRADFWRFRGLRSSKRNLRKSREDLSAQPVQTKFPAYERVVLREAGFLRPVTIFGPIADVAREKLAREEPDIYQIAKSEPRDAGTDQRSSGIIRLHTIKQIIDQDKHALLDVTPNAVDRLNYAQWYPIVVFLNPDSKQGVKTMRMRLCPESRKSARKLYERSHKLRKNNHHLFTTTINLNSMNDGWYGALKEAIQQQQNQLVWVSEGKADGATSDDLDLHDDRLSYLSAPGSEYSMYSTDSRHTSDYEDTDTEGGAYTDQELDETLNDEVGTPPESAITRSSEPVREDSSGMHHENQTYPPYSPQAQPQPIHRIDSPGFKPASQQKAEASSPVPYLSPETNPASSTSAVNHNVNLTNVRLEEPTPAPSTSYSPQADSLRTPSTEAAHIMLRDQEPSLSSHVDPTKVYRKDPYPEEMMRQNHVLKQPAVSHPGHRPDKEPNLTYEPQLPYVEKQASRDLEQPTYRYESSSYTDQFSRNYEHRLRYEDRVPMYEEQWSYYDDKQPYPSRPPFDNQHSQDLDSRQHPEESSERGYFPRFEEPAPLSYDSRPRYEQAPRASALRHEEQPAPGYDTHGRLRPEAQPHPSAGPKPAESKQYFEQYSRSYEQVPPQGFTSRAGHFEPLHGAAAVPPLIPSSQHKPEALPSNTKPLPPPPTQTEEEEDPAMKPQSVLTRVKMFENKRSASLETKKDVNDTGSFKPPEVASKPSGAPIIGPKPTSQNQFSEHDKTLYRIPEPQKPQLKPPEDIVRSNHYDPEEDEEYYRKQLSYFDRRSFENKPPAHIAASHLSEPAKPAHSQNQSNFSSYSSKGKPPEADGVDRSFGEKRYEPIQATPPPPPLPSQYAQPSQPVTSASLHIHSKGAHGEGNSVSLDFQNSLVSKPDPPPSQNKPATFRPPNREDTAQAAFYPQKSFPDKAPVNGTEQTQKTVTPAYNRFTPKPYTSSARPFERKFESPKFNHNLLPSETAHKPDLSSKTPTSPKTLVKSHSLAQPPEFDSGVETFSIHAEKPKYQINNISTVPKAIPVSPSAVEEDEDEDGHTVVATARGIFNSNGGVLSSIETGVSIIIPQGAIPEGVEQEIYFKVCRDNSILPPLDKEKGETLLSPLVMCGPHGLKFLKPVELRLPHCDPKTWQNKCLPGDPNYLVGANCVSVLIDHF

These are yes or no findings as the source states them, for the method shown. In cells and extracts the contact can be indirect. Some binding calls cover weakened binding; strength is not graded here.

This test concerns the target T1, SLC26A3 (solute carrier family 26 member 3), wild type (human (endogenous in Caco-2)) (UniProt P40879).
T1 sequence: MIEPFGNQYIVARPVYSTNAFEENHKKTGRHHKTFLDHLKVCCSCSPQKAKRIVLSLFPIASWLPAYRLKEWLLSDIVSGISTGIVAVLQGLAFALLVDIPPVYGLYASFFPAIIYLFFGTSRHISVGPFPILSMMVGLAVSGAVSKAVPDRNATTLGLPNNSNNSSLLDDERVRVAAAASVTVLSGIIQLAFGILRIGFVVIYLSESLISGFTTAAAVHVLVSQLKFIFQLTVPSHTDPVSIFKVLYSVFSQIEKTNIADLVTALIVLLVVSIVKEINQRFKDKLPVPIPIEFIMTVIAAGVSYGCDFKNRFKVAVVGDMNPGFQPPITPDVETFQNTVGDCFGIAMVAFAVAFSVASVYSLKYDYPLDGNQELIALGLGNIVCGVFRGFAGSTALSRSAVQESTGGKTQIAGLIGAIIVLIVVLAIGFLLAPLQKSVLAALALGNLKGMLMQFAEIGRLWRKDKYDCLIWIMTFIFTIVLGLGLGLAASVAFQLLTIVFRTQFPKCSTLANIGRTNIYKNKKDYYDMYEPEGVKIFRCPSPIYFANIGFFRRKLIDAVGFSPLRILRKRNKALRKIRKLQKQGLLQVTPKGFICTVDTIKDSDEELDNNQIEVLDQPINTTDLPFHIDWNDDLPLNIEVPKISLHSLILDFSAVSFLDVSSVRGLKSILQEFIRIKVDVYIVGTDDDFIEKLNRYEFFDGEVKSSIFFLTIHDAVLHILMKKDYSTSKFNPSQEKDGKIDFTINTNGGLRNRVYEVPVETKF
Kind of test: co-IP; endogenous; Caco-2 WT, P131R and RWT lysates (non-denaturing lysis buffer, 500 µg protein) with 2 µg SLC26A3 antibody overnight at 4 °C, protein A/G Sepharose beads, immunoblot; IgG as negative control. A general note: A western blot detects proteins with antibodies after separation by electrophoresis.

Take “cystic fibrosis transmembrane conductance regulator (CFTR) (from UniProt P13569 1-1480)”: the binding entry is reported as “binds”.

For ZO-1 (from UniProt Q07157 1-1748), the binding entry is “binds”.
